Laboratory results reported in patent publication US7585886B2, “Pyrrolidine derivative or salt thereof” (Astellas Pharma Inc., priority 2005, dated 2009).
The structures given here were assigned with low confidence; some may be wrong. Marks after values point to notes of the source that are not given here.

Amino acid sequences for entries named in this document (tags omitted). Residues count along the entry.
UniProt P41180, 20-1078 limits assumed: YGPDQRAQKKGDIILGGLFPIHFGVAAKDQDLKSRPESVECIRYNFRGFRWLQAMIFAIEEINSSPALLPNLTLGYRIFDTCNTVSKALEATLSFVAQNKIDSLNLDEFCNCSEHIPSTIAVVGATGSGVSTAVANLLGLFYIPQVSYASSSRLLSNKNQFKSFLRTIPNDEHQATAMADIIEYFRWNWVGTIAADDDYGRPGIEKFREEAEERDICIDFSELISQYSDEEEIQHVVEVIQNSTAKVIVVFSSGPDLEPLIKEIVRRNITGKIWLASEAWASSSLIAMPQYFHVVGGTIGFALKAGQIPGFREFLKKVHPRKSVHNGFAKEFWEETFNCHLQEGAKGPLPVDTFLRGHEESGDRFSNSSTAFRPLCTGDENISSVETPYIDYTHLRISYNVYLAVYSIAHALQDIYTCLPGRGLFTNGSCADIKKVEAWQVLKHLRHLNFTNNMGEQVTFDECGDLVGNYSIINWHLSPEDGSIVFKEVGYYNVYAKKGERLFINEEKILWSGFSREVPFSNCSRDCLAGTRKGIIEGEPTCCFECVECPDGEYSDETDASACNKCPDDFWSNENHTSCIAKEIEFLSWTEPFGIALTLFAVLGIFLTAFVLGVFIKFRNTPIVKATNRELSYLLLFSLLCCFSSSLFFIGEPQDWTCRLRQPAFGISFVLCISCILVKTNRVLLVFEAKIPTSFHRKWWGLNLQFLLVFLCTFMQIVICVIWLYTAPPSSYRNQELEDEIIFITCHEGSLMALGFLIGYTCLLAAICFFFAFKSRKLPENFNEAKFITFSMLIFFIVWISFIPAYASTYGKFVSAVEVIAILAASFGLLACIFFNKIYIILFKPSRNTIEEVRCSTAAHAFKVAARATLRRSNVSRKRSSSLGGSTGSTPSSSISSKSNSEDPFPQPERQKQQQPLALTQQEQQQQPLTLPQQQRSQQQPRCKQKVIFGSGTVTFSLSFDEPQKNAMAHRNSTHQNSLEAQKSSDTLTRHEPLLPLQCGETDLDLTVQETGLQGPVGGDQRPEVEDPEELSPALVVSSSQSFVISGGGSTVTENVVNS

Experiments:
[1] = target: human CaSR (Homo sapiens, UniProt P41180); experiment: Human calcium sensing receptor (CaSR) agonistic activity test (FLIPR, Fluo-3 intracellular Ca2+); conditions: read-out: EC50 (compound concentration showing 50% activity), human CaSR agonistic activity; HEK 293 cell stably expressing human CaSR; 0.5 mM Ca2+ buffer; solvent group 0%, 2 mM Ca2+ group 100%; tested form: HCl
Description: Test 1. Human Calcium Sensing Receptor (CaSR) Agonistic Activity Test
• 1) Preparation of Human CaSR Expression Vector
A DNA fragment coding for human CaSR was cloned in the standard method. Illustratively, using 203 to 2387 of NM_000388 as a DNA fragment D4, and 2210 to 3633 as a DNA fragment B2, they were amplified using a human kidney cDNA (mfd. by Invitrogen) as the template and using a DNA polymerase (a registered trade name: Pyrobest, mfd. by Takara Bio), and respectively cloned into a pCR2.1 vector using a pCR2.1-Topo vector (mfd. by Invitrogen). Next, DNA fragments prepared by digesting pCR2.1-D4 with SpeI and XbaI were inserted into the same sites of pcDNA3.1/Zeo(+) vector. Successively, the fragments prepared by digesting pCR2.1-B2 with SacI and XbaI were inserted into the SacI and XbaI sites of previously prepared pcDNA3.1/Zeo(+)-D4 (SpeI-XbaI), thereby obtaining a human CaSR expression vector pcDNA3.1/Zeo(+)-hCaSR in which human CaSR open reading frame (ORF) was contained in the pcDNA3.1/Zeo(+) vector. • 2) Preparation of Human CaSR Expression Cell […]
The HEK 293 cell stably expressing human CaSR was inoculated into a poly-D-lysine-coated black clear bottom 96 well plate (mfd. by BD Bioscience). […] In this connection, the compound to be evaluated was used by optionally diluting with the washing buffer supplemented with 0.5 mM Ca^2+. […]

[2] = Measurement of rat plasma calcium concentration after single oral administration; conditions: normal male rats, 1 mg/kg oral administration, tested form: HCl
Description: Test 2. Measurement of Rat Plasma Calcium Concentration and Plasma PTH Concentration
The compounds of the invention were administered to rats, and their influences upon the plasma calcium concentration and plasma PTH concentration were examined. The test was carried out by single oral administration of the compounds 5 or 6 normal male rats.
As a vehicle group, an MC solution prepared by adding 0.5% methyl cellulose (MC) solution or ethanol to a final concentration of 5% was administered at a dose of 5 ml/kg. As the comparative control, cinacalcet was dissolved in the MC solution and administered at a dose of 3 mg/kg. Each of the compounds, of the invention was dissolved or suspended the MC solution, or dissolved in ethanol and then diluted with the MC solution as occasion demands, and administered at a dose of 1, 3 or 10 mg/kg.
Blood samples were collected from the orbital venous plexus under ether anesthesia before the administration and 2Hours, 4Hours, or 8Hours in some cases, after the administration, and the plasma calcium concentration was measured using Calcium E-Test Wako (mfd. by Wako Pure Chemical Industries), and the plasma PTH concentration using Rat Intact PTH ELISA Kit (mfd. by Immutopics) or Rat Bioactive Intact PTH ELISA Kit (mfd. by Immutopics).

Q: For `C[C@@H](NC[C@H]1CN(c2ccc(C(=O)O)cc2)C[C@@H]1c1ccccc1)c1cccc2ccccc12`, which EC50 [1] is on record?
A: 6.9 nM

Q: And the “Rat plasma calcium concentration reducing ratio (%) 4 hours after administration” value [2]?
A: 20* %
